Laboratory results as given in PubChem BioAssay AID504834 (National Center for Advancing Translational Sciences (NCATS), 2011).
Hit rate of the full screen: of about 320,000 compounds, about 22,000 (6.9%) were called active. The shares of active, inactive and inconclusive entries below differ from those in the screen. Calls follow the shape of the dose curve; as a rule, active = well fitted inhibition curve with a large enough effect; inconclusive = small, poorly fitted or top-dose-only effect, or another doubt; inactive = no such curve, though single readings can be large or run the other way. Potencies beside an inconclusive call are fits to weak or partial responses and may not hold up.
Potency is read from the fitted curve at half-maximal effect.

Assay: Primary qHTS for delayed death inhibitors of the malarial parasite plastid, 96 hour incubation
Settings: P. falciparum luciferase reporter growth; series mostly up to 28.7 µM
Outline: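 Erythrocytes infected with luciferase-expressing P. falciparum were dispensed at 2% hematocrit and 0.05% parasitemia (final), then incubated with compounds 96 hours at 37 C in 5% CO2. Luminescence after detection reagent addition reported growth.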
In the case of `CN(CC(=O)Nc1ccccc1C(F)(F)F)C(=O)c1ccc(-c2ccc(Cl)cc2)o1`, the Potency was active: 2.62 µM. In the case of `COc1ccc(S(=O)(=O)N(C)c2ccc(C(=O)NC3CCCC3)cc2)cc1`, the Potency was inconclusive: 18.5 µM [inhibitor, single point]. For `CCCOC(c1ccccc1)(c1ccccc1)C(Oc1nc(C)cc(C)n1)C(=O)O` (stereo not given), the Potency was inconclusive: 0.0928 µM [inhibitor, full curve, poor fit]. In the case of `CN(C)c1ccc(C=C(C#N)C#N)cc1`, the Potency was inconclusive: 18.5 µM [inhibitor, single point]. With `Cc1cc(-c2n[nH]c(=S)n2/N=C/C(Cl)=C/c2ccccc2)n[nH]1` the Potency was inconclusive: 5.86 µM [inhibitor, partial curve, poor fit]. With `CCOC(=O)CN1NC2(CCC(C)CC2)NC1=S` (stereo not given) the Potency was “inactive”. For `CC(=O)Nc1cccc(NC(=O)CSc2nnc3ccc(-c4cccnc4)nn23)c1`, the Potency was inconclusive: 18.5 µM [inhibitor, single point]. With `COc1ccc(CNC(=O)C(C)N2C(=O)NC3(CCCCCCC3)C2=O)cc1` (stereo not given) the Potency was inconclusive: 8.28 µM [inhibitor, partial curve]. For `O=C(c1cccc2ccccc12)N1CCN=C1SCc1ccc([N+](=O)[O-])cc1`, the Potency was “inactive”. In the case of `N#CCCN1CCN(S(=O)(=O)c2ccc(S(=O)(=O)N3CCCCCC3)cc2)CC1`, the Potency was “inactive”. With `COc1ccc(N2CCN(C(=O)CNC(=O)c3ccc(Br)o3)CC2)cc1` the Potency was inconclusive: 16.5 µM [inhibitor, single point]. With `Cc1cccc(C(C)C)c1NC(=O)c1ccc(COc2ccc3c(C)cc(=O)oc3c2)cc1` the Potency was active: 9.28 µM. For `COc1ccc(NC(=O)c2cc(-c3ccc(OC)c(OC)c3)nc3ccccc23)c(OC)c1`, the Potency was active: 10.4 µM. With `Cc1ccc([N+](=O)[O-])cc1NC(=O)CCSc1ccc(Cl)cc1` the Potency was active: 9.28 µM. For `c1ccc2sc(NC3=NCCN3)nc2c1`, the Potency was “inactive”. In the case of `O=C(NCC1CCCO1)/C(=C/c1ccc(Cl)cc1)NC(=O)c1ccccc1` (stereo not given), the Potency was “inactive”. In the case of `COc1ccc(/C=N/n2c(SC)nnc2-c2ccccc2)cc1C`, the Potency was “inactive”. With `Cc1ccc(S(=O)(=O)CCC(=O)NCCC2=CCCCC2)cc1` the Potency was “inactive”. For `C=CCN(C)NC(=S)Nc1ccccc1`, the Potency was “inactive”. With `O=C1Nc2ccccc2C1(O)c1ccccc1` (stereo not given) the Potency was active: 0.104 µM. For `CCOC(=O)C1(CC2CCCCO2)CCN(C(=O)NCc2ccccc2)CC1` (stereo not given), the Potency was inconclusive: 14.7 µM [inhibitor, partial curve, poor fit]. With `CC(C)c1ccc(NC2CCCN(C(=O)c3ccco3)C2)cc1` (stereo not given) the Potency was “inactive”. For `CC(=O)OCC1=C(C(=O)O)N2C(=O)C(NC(=O)CCn3nc(C(F)(F)F)c(Br)c3C3CC3)C2SC1` (stereo not given), the Potency was “inactive”. For `Cc1ccc2c(c1)C(=NC1CCCCC1)c1cc3ccccc3nc1-2`, the Potency was “inactive”. In the case of `CC(C)C[C@H](N)c1cn([C@@H](Cc2cc3ccccc3[nH]2)C(=O)N2CCNCC2)nn1`, the Potency was inconclusive: 13.1 µM [inhibitor, single point]. With `O=C1C=C(c2ccccc2)C[C@H](c2cccs2)[C@H]1n1cnc([N+](=O)[O-])c1` the Potency was inconclusive: 11.7 µM [inhibitor, single point]. With `CCOc1ccccc1NC(=O)N1CCC2(CC1)OCCO2` the Potency was “inactive”. In the case of `COC(=O)c1[nH]c2cccc(Cl)c2c1NC(=O)CN1CCCCC1C` (stereo not given), the Potency was active: 4.15 µM. For `Cc1cc(C)c(NC(=S)NC(NC(=O)c2ccccc2)C(Cl)(Cl)Cl)c(C)c1` (stereo not given), the Potency was “inactive”. For `Cc1ccc(N(CC(=O)NC(C)C)C(=O)CCC(=O)Nc2nccs2)cc1C`, the Potency was inconclusive: 14.7 µM [inhibitor, single point]. In the case of `CCOc1ccccc1NC(=O)CSc1nc2ccccc2nc1N1CCCC1`, the Potency was inconclusive: 5.86 µM [inhibitor, partial curve, poor fit]. In the case of `Cc1ccc(C(=O)N2CCCC(CCC(=O)N3CCN(c4ccccn4)CC3)C2)s1` (stereo not given), the Potency was inconclusive: 18.5 µM [inhibitor, single point]. For `Cc1nn(C)cc1C(C)Nc1nc2nonc2nc1N1CCCCC1` (stereo not given), the Potency was “inactive”. In the case of `CSc1ccccc1NC(=O)CSc1nncs1`, the Potency was “inactive”. In the case of `Cc1ccc(NC(=O)/C(=C\c2cccc(Br)c2)NC(=O)c2ccco2)cc1`, the Potency was inconclusive: 16.5 µM [inhibitor, partial curve, poor fit]. For `CCOC(=O)C1=C(c2ccccc2)NC(=S)NC1c1cc([N+](=O)[O-])ccc1OC` (stereo not given), the Potency was “inactive”. With `COc1cccc(NC(=O)CSc2nnc(CNC(=O)c3ccco3)n2C)c1` the Potency was “inactive”. For `O=C(COC(=O)CNC(=O)c1cccc(F)c1)NCCC1=CCCCC1`, the Potency was “inactive”. For `CCOC(=O)c1c2ccc(OCC(=O)NN)cc2n2ccccc12`, the Potency was inconclusive: 16.5 µM [inhibitor, single point]. For `O=C(Nc1ccccc1)N1CCc2scc[n+]2-c2ccccc21`, the Potency was “inactive”. With `Cc1ccc(OCC(=O)Nc2nc(C)c(Cl)cc2Cl)c([N+](=O)[O-])n1` the Potency was “inactive”. In the case of `CC(=O)c1ccc(NC(=O)CSc2ccc(-c3ccco3)nn2)cc1`, the Potency was inconclusive: 8.28 µM [inhibitor, partial curve]. With `COc1cc(OC)cc(-c2oc(=O)c3cc(OC)c(OC)cc3c2C#CCCCO)c1` the Potency was inconclusive: 2.62 µM [inhibitor, single point]. In the case of `CCOC(=O)N1CCN(S(=O)(=O)c2ccc(C(=O)Nc3nc4ccc(F)cc4s3)cc2)CC1`, the Potency was inconclusive: 7.38 µM [inhibitor, partial curve]. With `COc1ccc(OC)c(CCNC(=O)c2cccc(NC3=NC4CS(=O)(=O)CC4S3)c2)c1` (stereo not given) the Potency was “inactive”. With `Cc1ccc2nc(-c3ccc(NC(=O)CN(c4ccccc4C)S(C)(=O)=O)cc3)sc2c1` the Potency was “inactive”. For `COc1ccc(C2=CC(c3ccc(OC)c(OC)c3)n3nnnc3N2)c(OC)c1` (stereo not given), the Potency was inconclusive: 14.7 µM [inhibitor, single point]. With `NS(=O)(=O)c1cccc(NC(=O)COC(=O)CNC(=O)c2ccc(-c3ccccc3)cc2)c1` the Potency was “inactive”. For `O=C(N[C@@H]1CCC(=O)N(CC[C@H](Sc2ccc(Br)cc2)c2ccccc2)CC1)OCc1ccccc1`, the Potency was inconclusive: 18.5 µM [inhibitor, single point]. With `O=C(COC(=O)c1cc(S(=O)(=O)N2CCOCC2)ccc1Cl)NC1CC1` the Potency was inconclusive: 0.0828 µM [inhibitor, full curve, poor fit]. In the case of `OCCN1CCN(CC#CCC(c2ccccc2)c2ccccc2)CC1`, the Potency was inconclusive: 16.5 µM [inhibitor, single point]. With `COc1ccc2c(c1)c(C(=O)CN1CCC3(CC1)OCCO3)c(C)n2Cc1ccccc1` the Potency was inconclusive: 1.17 µM [inhibitor, partial curve, poor fit]. In the case of `Cc1cccn2c(=O)c(/C=C3\SC(=S)N(CC(C)C)C3=O)c(NCCCOC(C)C)nc12`, the Potency was inconclusive: 4.15 µM [inhibitor, single point]. In the case of `O=C(CCCCCBr)N1CCC(CC2CC(c3ccc(Cl)cc3)=NO2)(C(=O)NCC2CCCCC2)CC1` (stereo not given), the Potency was active: 3.29 µM. For `CCOc1ccc(-c2nc(C#N)c(N3CCN(Cc4ccccc4)CC3)o2)cc1`, the Potency was “inactive”. With `O=C(CSc1nnc(NC(=O)c2ccc3c(c2)OCO3)s1)NCc1ccco1` the Potency was “inactive”. With `O=C(COC(=O)CCSc1ccccc1)NCc1ccc(F)cc1` the Potency was “inactive”. With `CCOC(=O)C1=C(NC(=S)NC(=O)c2ccccc2)c2ccccc2CC1C(C)C` (stereo not given) the Potency was “inactive”. For `CC(=O)c1ccc(S(=O)(=O)N2CCCc3ccccc32)cc1`, the Potency was inconclusive: 3.29 µM [inhibitor, single point]. For `Cc1cccc(NP(=O)(Oc2ccccc2)Oc2ccccc2)c1C`, the Potency was inconclusive: 18.5 µM [inhibitor, single point]. For `O=C(CN1CCN(c2ccc(O)cc2)CC1)NCC(=O)Nc1ccc(F)c(F)c1F`, the Potency was inconclusive: 18.5 µM [inhibitor, single point]. For `COC(=O)c1sccc1NC(=O)CC1C(=O)NCCN1C(=O)Nc1cc(Cl)ccc1OC` (stereo not given), the Potency was inconclusive: 18.5 µM [inhibitor, partial curve, poor fit]. For `Cc1ccc2[nH]c3c(=O)n(CC(=O)NCCCN4CCN(c5ccc(F)cc5)CC4)ncc3c2c1`, the Potency was inconclusive: 9.28 µM [inhibitor, partial curve]. For `O=C(c1cc(-c2cccc(Cl)c2)on1)N1CCCCCC1`, the Potency was “inactive”. With `CCN(CC)c1ccc(/C=N/Nc2nc3ccccc3[nH]2)c(O)c1` the Potency was active: 1.17 µM. With `Cc1ccc(NS(=O)(=O)N2CCOCC2)cc1` the Potency was inconclusive: 14.7 µM [inhibitor, partial curve, poor fit]. With `O=c1[nH]c(Cc2ccccc2Cl)nc2ccccc12` the Potency was active: 9.28 µM. For `Cc1ccc(C)c(S(=O)(=O)N2CCCOC2CNC(=O)C(=O)NCCCn2ccnc2)c1` (stereo not given), the Potency was “inactive”. With `CCOc1ccc(Nc2nc(N)nc(CCl)n2)cc1` the Potency was inconclusive: 0.37 µM [inhibitor, full curve, poor fit]. In the case of `CCc1nnc(NC(=O)c2ccc(S(=O)(=O)N3CCCCC3)cc2)s1`, the Potency was “inactive”. In the case of `Cc1ccc(OCC(=O)Nc2ccc(N3CCOCC3)cc2)cc1`, the Potency was inconclusive: 18.5 µM [inhibitor, single point]. For `Cc1onc(-c2ccccc2)c1C(=O)NNC(=S)NC(=O)c1ccc(Cl)cc1Cl`, the Potency was “inactive”. For `C=CCN1C(=O)C(CC(=O)NCC)SC1=Nc1ccccc1CC` (stereo not given), the Potency was “inactive”. In the case of `Cc1nn(-c2ccccc2)c2nc(C(F)(F)F)[nH]c(=O)c12`, the Potency was “inactive”. In the case of `CC(/C=N/NC(=O)c1ccc(CN2c3cccc4cccc(c34)S2(=O)=O)cc1)c1ccccc1` (stereo not given), the Potency was inconclusive: 9.28 µM [inhibitor, partial curve, poor fit].
